Test results reported in PubChem BioAssay AID493014 (National Center for Advancing Translational Sciences (NCATS), 2011).
The other results are listed elsewhere or left out. Further columns of the screen follow, without active or inactive calls. The list favours compounds with an active or inconclusive main result. The note in brackets gives the kind of curve behind each potency; many fits are weak.

Assay: qHTS Assay to Find Inhibitors of Chronic Active B-Cell Receptor Signaling
Details: ABC-DLBCL IkBa-CBG/CBR reporter, luminescence ratio (green luciferase fused to IkBa over red control in TMD8 lymphoma cells), 4 h
In short: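 Cell line TMD8 (human ABC DLBCL), stably expressing tet-inducible CBG68-IkBa fusion and CBR; IMDM/0.5% FBS; cpd up to 46 uM; dox induction, 4 h, 37C/5% CO2; dual luminescence; green/red ratio; MG132 control.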

[1] = measured here: CBR red luminescence, cell number
[2] = measured here: IkBa-CBG green luminescence

Structure (SMILES): CC(C)(C)n1cnc2cc(NC(=O)c3ccccc3)ccc21
- AC50 [1]: 15.8 µM [falling, single point]

Structure (SMILES): C[C@@]12C(=O)Nc3ccc(Cl)cc3C(=O)N1[C@H]1c3cc(Br)ccc3OC[C@@H]1[C@@H]2c1ccccc1
- AC50 [1]: 7.31 µM [falling, partial curve]
- AC50 [2]: 7.31 µM [rising, partial curve, poor fit]

Structure (SMILES): Cc1cccc(N(CC(=O)NC2CCCC2)C(=O)CCC(=O)Nc2nc(C)cs2)c1
- AC50 [1]: 17.8 µM [falling, partial curve, poor fit]

Structure (SMILES): CC(NC(=O)c1ccccc1Cl)C1CC2CCC1C2 (stereo not given)
- AC50 [1]: 35.5 µM [rising, single point]

Structure (SMILES): O=C(CSc1nc2ccc(Cl)cc2[nH]1)NCCc1ccc(Cl)cc1
- AC50 [1]: 14.6 µM [falling, single point]

Structure (SMILES): CN(C)/C=N/c1c(C(=O)NCc2ccccc2)nnn1Cc1ccccc1
- AC50 [1]: 3.55 µM [rising, single point]

Structure (SMILES): COc1ccccc1CNS(=O)(=O)CCNC(=O)c1ccccc1
- AC50 [1]: 13 µM [rising, partial curve]

Structure (SMILES): O=C(O)Cc1ccc(C(=O)c2ccc(F)cc2)s1
- AC50 [1]: 29.1 µM [rising, single point]

Structure (SMILES): O=C(O)CCNc1cc(N2CCN(C(=O)c3ccco3)CC2)c2noc3c2c1C(=O)c1ccccc1-3
- AC50 [1]: 11.2 µM [falling, partial curve, poor fit]

Structure (SMILES): COC(=O)c1sc(NC(=O)COc2cccnc2[N+](=O)[O-])c(C(=O)OC)c1C
- AC50 [1]: 13 µM [falling, partial curve, poor fit]

Structure (SMILES): Cc1ccc(S(=O)(=O)NCC(=O)OCc2csc(-c3ccccc3)n2)cc1
- AC50 [1]: 7.31 µM [falling, partial curve, poor fit]

Structure (SMILES): C/C=C/c1ccc(OCC(=O)Nc2cc(S(=O)(=O)N3CCOCC3)ccc2N2CCCC2)c(OC)c1
- AC50 [1]: 5.8 µM [falling, partial curve, poor fit]

Structure (SMILES): CC1(NC(=O)c2cccc(S(=O)(=O)N3CCCc4ccccc43)c2)CCS(=O)(=O)C1 (stereo not given)
- AC50 [1]: 29.1 µM [falling, partial curve, poor fit]

Structure (SMILES): O=C(Nc1ccc(Cl)cn1)c1ccc2c(Cl)c3c(nc2c1)CCC3
- AC50 [1]: 0.708 µM [falling, full curve, poor fit]

Structure (SMILES): COc1ccc(-c2[nH]n(-c3ccc([N+](=O)[O-])cc3)c(=O)c2C=NCC2CCCO2)cc1 (stereo not given)
- AC50 [1]: 0.447 µM [rising, full curve, poor fit]

Structure (SMILES): O=C(N/N=C/c1cccc(C(F)(F)F)c1)c1ccc(O)cc1
- AC50 [1]: 11.2 µM [falling, partial curve, poor fit]

Structure (SMILES): CCCNC(=O)CCn1nc(-c2ccc(C)cc2)c2ccccc2c1=O
- AC50 [1]: 0.158 µM [rising, full curve, poor fit]

Structure (SMILES): O=[N+]([O-])c1cc(S(=O)(=O)C(F)(F)F)ccc1Sc1nc2ccccc2[nH]1
- AC50 [1]: 10.3 µM [falling, partial curve]
- AC50 [2]: 18.4 µM [rising, partial curve, poor fit]

Structure (SMILES): COc1ccc(CNC(=O)c2sc(=S)n(-c3ccc(OC)cc3)c2N)cc1
- AC50 [1]: 29.1 µM [rising, single point]

Structure (SMILES): O=[N+]([O-])c1cc(S(=O)(=O)N2CCCC2)ccc1O
- AC50 [1]: 20.6 µM [rising, partial curve, poor fit]

Structure (SMILES): O=C(Nc1ccc(NC(=S)NC(=O)c2cccs2)cc1)c1ccco1
- AC50 [1]: 14.1 µM [rising, partial curve, poor fit]
- AC50 [2]: 11.2 µM [falling, single point]

Structure (SMILES): Nc1nc(SCC(=O)c2ccc([N+](=O)[O-])cc2)n[nH]1
- AC50 [1]: 8.91 µM [falling, partial curve, poor fit]

Structure (SMILES): O=C1CC(c2ccc(Cl)cc2)CC(=O)C1CS(=O)(=O)c1ccccc1 (stereo not given)
- AC50 [1]: 15.8 µM [falling, partial curve, poor fit]

Structure (SMILES): O=C(Cc1ccc(Cl)cc1)c1ccc(O)cc1
- AC50 [1]: 11.2 µM [falling, partial curve, poor fit]

Structure (SMILES): CCC1C/C(=C\c2cc(OC)c(OC)cc2OC)C(=O)/C(=C/c2cc(OC)c(OC)cc2OC)C1 (stereo not given)
- AC50 [1]: 11.2 µM [falling, partial curve, poor fit]
- AC50 [2]: 22.4 µM [rising, partial curve, poor fit]

Structure (SMILES): COc1ccc(OC)c(CCNC(=O)C(=O)Nc2ccc3nc4n(c(=O)c3c2)CCCCC4)c1
- AC50 [1]: 11.2 µM [rising, partial curve, poor fit]

Structure (SMILES): COc1ccc(CN(C(=O)CSc2nnc(-c3c[nH]c4ccccc34)o2)c2ccc(F)cc2)cc1OC
- AC50 [1]: 20.6 µM [falling, partial curve]
- AC50 [2]: 18.4 µM [rising, single point]

Structure (SMILES): CCC(OCC(O)CN1CCN(CCN2C(=O)c3cccc4cccc(c34)C2=O)CC1)c1ccccc1 (stereo not given)
- AC50 [1]: 29.1 µM [falling, single point]

Structure (SMILES): COc1ccc(CCN(C)Cc2ccc(OCc3ccccc3)c(OC)c2)cc1OC
- AC50 [1]: 35.5 µM [falling, single point]

Structure (SMILES): Nc1c(C(=O)Nc2ccccc2)sc2ncc([N+](=O)[O-])cc12
- AC50 [1]: 0.562 µM [falling, full curve, poor fit]

Structure (SMILES): COc1ccc(C2C(C(=O)N3CCN(c4ccccn4)CC3)CCC(=O)N2c2cc(OC)c(OC)c(OC)c2)cc1 (stereo not given)
- AC50 [1]: 8.91 µM [rising, partial curve, poor fit]

Structure (SMILES): COc1ccc(S(N)(=O)=O)cc1C(=O)OCC(=O)NC(C)(C#N)C1CC1 (stereo not given)
- AC50 [1]: 29.1 µM [rising, single point]

Structure (SMILES): Cc1ccc2c(c1)c1c(n2CC(O)Cn2nc(C)c(Br)c2C)CCCC1 (stereo not given)
- AC50 [1]: 18.4 µM [falling, single point]

Structure (SMILES): CCCC(=O)Nc1cnc(NC(=O)c2cccc(F)c2)cc1C
- AC50 [1]: 20.6 µM [falling, partial curve, poor fit]

Structure (SMILES): O=C1NC(c2ccc(-c3ccccc3[N+](=O)[O-])o2)C(C(=O)c2ccc(Cl)cc2)C(O)(C(F)(F)F)N1 (stereo not given)
- AC50 [1]: 29.1 µM [falling, single point]

Structure (SMILES): CCc1ccccc1NC(=O)C1CC(c2ccc(F)cc2)=NO1 (stereo not given)
- AC50 [1]: 3.55 µM [falling, partial curve, poor fit]

Structure (SMILES): COc1ccc(N2C(=O)[C@@H]3[C@H](C2=O)[C@H]2c4ccccc4C=CN2[C@@H]3C(=O)Nc2ccccc2)cc1
- AC50 [1]: 0.731 µM [rising, partial curve, poor fit]

Structure (SMILES): COc1ccc(C)cc1NC(=O)NNC(=O)C(C)Oc1ccc(F)cc1Cl (stereo not given)
- AC50 [1]: 5.62 µM [rising, full curve]

Structure (SMILES): O=C1Oc2ccccc2C(=O)/C1=C/N1CCN(c2ccccc2F)CC1
- AC50 [1]: 5.01 µM [falling, partial curve]

Structure (SMILES): O=C(CCCSc1nc2ccccc2s1)NCc1ccc2c(c1)OCO2
- AC50 [2]: 4.11 µM [rising, partial curve, poor fit]

Structure (SMILES): CCN(Cc1ccccc1)S(=O)(=O)c1ccc(S(=O)(=O)N(Cc2cccc(OC)c2)CC2CCCO2)cc1 (stereo not given)
- AC50 [1]: 0.0291 µM [falling, full curve, poor fit]

Structure (SMILES): CCCCN(CCCC)Cc1ccc(N)cc1
- AC50 [1]: 2.31 µM [rising, full curve, poor fit]

Structure (SMILES): Cc1[nH]c2ccc(F)cc2c(=O)c1SC(F)(F)C(F)C(F)(F)F (stereo not given)
- AC50 [1]: 1.84 µM [rising, full curve, poor fit]

Structure (SMILES): Cn1c(SCC(=O)N/N=C/c2ccc([N+](=O)[O-])s2)nnc1-c1ccccc1
- AC50 [1]: 32.6 µM [falling, single point]

Structure (SMILES): Cc1ccc(Cc2c(C)nc3nc(SCC(=O)NCc4ccco4)nn3c2C)cc1
- AC50 [1]: 31.6 µM [rising, single point]
- AC50 [2]: 25.1 µM [falling, single point]

Structure (SMILES): CC(C)OC(=O)c1ccc(NC(=O)Cn2c(-c3nonc3N)nc3ccccc32)cc1
- AC50 [1]: 1.3 µM [rising, full curve]

Structure (SMILES): COc1ccc(/C=N/NC(=O)c2ccncc2)cc1COc1ccc(NC(C)=O)cc1
- AC50 [1]: 0.355 µM [rising, full curve, poor fit]

Structure (SMILES): Cc1c(NC(C)C)c(=O)n(-c2ccccc2)n1C
- AC50 [1]: 23.1 µM [rising, partial curve, poor fit]

Structure (SMILES): CC1(C)NC(=O)N(CCCCSc2ccc(Cl)cc2)C1=O
- AC50 [1]: 5.17 µM [falling, partial curve, poor fit]

Structure (SMILES): COc1ccc(OC)c(NC(=S)NN2CCN(C)CC2)c1
- AC50 [1]: 16.4 µM [rising, partial curve, poor fit]

Structure (SMILES): COc1cc(C)c(CN2CCC(Cc3ccccc3)CC2)cc1C
- AC50 [1]: 6.31 µM [falling, single point]

Structure (SMILES): CCOc1ccc(Nc2ncnc3c2cnn3C)cc1
- AC50 [1]: 0.562 µM [rising, full curve, poor fit]

Structure (SMILES): CCOC(=O)C1(Cc2ccccc2)CCN(Cc2cccn2-c2cccnc2)CC1
- AC50 [1]: 22.4 µM [falling, single point]

Structure (SMILES): CCc1nc(C)cn1S(=O)(=O)c1cc([N+](=O)[O-])ccc1Cl
- AC50 [1]: 35.5 µM [falling, partial curve, poor fit]
- AC50 [2]: 22.4 µM [falling, single point]

Structure (SMILES): [O-][n+]1c2ccccc2c2n1CCN=C2c1ccc(Cl)cc1
- AC50 [1]: 29.1 µM [falling, single point]

Structure (SMILES): O=C(Nc1ccccc1)c1cc2ccccc2[nH]1
- AC50 [1]: 5.8 µM [falling, partial curve]

Structure (SMILES): O=C(Nc1ccc(F)cc1)C1=CC(=O)N2CCN=C2S1
- AC50 [1]: 3.55 µM [falling, partial curve, poor fit]

Structure (SMILES): CCC(=O)N(C)CCc1cc2c(c(OC)c1/C=N/NC(=O)c1ccccc1O)OCO2
- AC50 [1]: 29.1 µM [falling, single point]
